These results are taken from paper PMC12463534, “Exploring the Anticancer Properties of 4-Phenylthiazole-Based Ru(II) and Os(II) Metallacycles Featuring 1-Methylimidazole as N-Donor Functionality” (Bioinorganic Chemistry and Applications, 2025).

Data set [1] in a line: Amino acid interaction study (1H-NMR, HRMS). To be noted: equimolar Ac-L-Met-OMe, Ac-L-His-OMe, Ac-L-Cys-OMe, 24 h, room temperature.
Data set [2] deals with HCT116 colorectal cancer cell line (2D). Nature of the data set: Resazurin assay, HCT116 2D (monolayer) culture. To be noted: HCT116, irrespective of 2D or 3D model.

As to `Cc1ccc(C(C)C)cc1.Cn1cc[n+]([Ru-]2[c]3ccccc3-c3csc[n+]32)c1.O=[N+]([O-])[O-]` [Compound 3a, [((3-κN)-1-Methylimidazole)(4-phenylthiazolato-κN,κC2′)(η^6-p-cymene)ruthenium(II)] Nitrate], in data set [1], the “Adduct formation with protected amino acids” value is on record as “no adduct formation was observed”. Besides, the “Fold more active than mesylated counterpart (3c, 4c)” value in data set [2] was “at least 20 fold”.

On to `Cc1ccc(C(C)C)cc1.Cn1cc[n+]([Ru-]2[c]3cc(S(C)(=O)=O)ccc3-c3csc[n+]32)c1.O=[N+]([O-])[O-]` [Compound 3c, [((3-κN)-1-Methylimidazole)(4-(4-(methylsulfonyl)phenyl)thiazolato-κN,κC2′)(η^6-p-cymene)ruthenium(II)] Nitrate], for which the “Adduct formation with protected amino acids” value in data set [1] is given as “no adduct formation was observed”.

In the case of `Cc1ccc(C(C)C)cc1.Cn1cc[n+]([Os-]2[c]3ccccc3-c3csc[n+]32)c1.O=[N+]([O-])[O-]` [Compound 4a, [((3-κN)-1-Methylimidazole)(4-phenylthiazolato-κN,κC2′)(η^6-p-cymene)osmium(II)] Nitrate], the “Fold more active than mesylated counterpart (3c, 4c)” value in data set [2] is reported as “at least 20 fold”.
